# Test results as given in the supplement of paper PMC10727501.
# This is one part of the list. Repeats in this data set agree poorly, so a single value says little.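 Free-swimming zebrafish larvae were assessed for O-bend response probability to dark flashes (naive: first five; training: remaining flashes across four 60-flash blocks; test: later 60-flash block) and for OMR turning toward alternating leftward/rightward LED motion. Six treated larvae were compared against sixty 0.1% DMSO controls; hits required |SSMD|≥2.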
# Tested on: Danio rerio larvae (5 dpf, TLF)
# Experiment: Prob-Naive (SSMD vs DMSO vehicle); higher = higher than vehicle (e.g. higher dark-flash O-bend response probability, or better optomotor performance)
# Conditions: 10 µM; pre-incubation: 30-90 min
row,Structure (SMILES),Prob-Naive
1,COc1ccc(-c2cc3c(C)nc(N)nc3n([C@H]3CC[C@H](OCCO)CC3)c2=O)cn1,-0.489
2,O=C(NNc1ccccc1)c1ccncc1,0.118
3,CC(C)/N=c1/cc2n(-c3ccc(Cl)cc3)c3ccccc3nc-2cc1Nc1ccc(Cl)cc1 [Clofazimine],-0.134
4,CCCc1nc(C(C)(C)O)c(C(=O)OCc2oc(=O)oc2C)n1Cc1ccc(-c2ccccc2-c2nn[nH]n2)cc1 [Olmesartan Medoxomil],-0.116
5,Cc1ccc(C(=O)C(C)CN2CCCCC2)cc1.Cl (centres undefined) [Tolperisone HCl],0.232
6,O=c1cc(N2CCOCC2)oc2c(-c3ccccc3)cccc12,-0.371
7,CC[C@@H](C)[C@@H]1NC(=O)[C@@H](CCCN)NC(=O)[C@@H](NC(=O)[C@@H](NC(=O)[C@@H](CCC(=O)[O-])NC(=O)[C@H](CC(C)C)NC(=O)C2CN=C([C@@H](N)[C@@H](C)CC)S2)[C@H](C)CC)CCCCNC(=O)[C@H](CC(N)=O)NC(=O)[C@@H](CC(=O)[O-])NC(=O)[C@H](Cc2c[nH]cn2)NC(=O)[C@H](Cc2ccccc2)NC1=O.[Zn+2] (some centres undefined) [Bacitracin zinc],-0.203
8,COc1ccc2[nH]c(S(=O)Cc3ncc(C)c(OC)c3C)nc2c1 (centres undefined) [Omeprazole],-0.224
9,COC(c1ccccc1)(c1ccccc1)[C@H](Oc1nc(C)cc(C)n1)C(=O)O [Ambrisentan],-0.151
10,O=S(=O)([O-])CCS.[Na+] [Mesna],0.454
11,C[C@H]1NC(=O)NC1=O [Methylhydantoin-5-(D)],0.163
12,CCN(CC)C(=O)[C@]1(c2ccccc2)C[C@@H]1CN.Cl [Milnacipran HCl],0.536
13,CCn1cc(C(=O)O)c(=O)c2cc(F)c(N3CCNCC3)cc21 [Norfloxacin (Norxacin)],-0.0588
14,CC(C)OC(=O)OCOP(=O)(CO[C@H](C)Cn1cnc2c(N)ncnc21)OCOC(=O)OC(C)C.O=C(O)/C=C\C(=O)O [Tenofovir Disoproxil Fumarate],0.255

# Compounds from the list above that have an NH in an aromatic ring (3):
row,Structure (SMILES),Prob-Naive
4,CCCc1nc(C(C)(C)O)c(C(=O)OCc2oc(=O)oc2C)n1Cc1ccc(-c2ccccc2-c2nn[nH]n2)cc1 [Olmesartan Medoxomil],-0.116
7,CC[C@@H](C)[C@@H]1NC(=O)[C@@H](CCCN)NC(=O)[C@@H](NC(=O)[C@@H](NC(=O)[C@@H](CCC(=O)[O-])NC(=O)[C@H](CC(C)C)NC(=O)C2CN=C([C@@H](N)[C@@H](C)CC)S2)[C@H](C)CC)CCCCNC(=O)[C@H](CC(N)=O)NC(=O)[C@@H](CC(=O)[O-])NC(=O)[C@H](Cc2c[nH]cn2)NC(=O)[C@H](Cc2ccccc2)NC1=O.[Zn+2] (some centres undefined) [Bacitracin zinc],-0.203
8,COc1ccc2[nH]c(S(=O)Cc3ncc(C)c(OC)c3C)nc2c1 (centres undefined) [Omeprazole],-0.224

# Tested on: Danio rerio larvae (5 dpf, TLF)
# Experiment: Prob-Train (SSMD vs DMSO vehicle); higher = higher than vehicle (e.g. higher dark-flash O-bend response probability, or better optomotor performance)
# Conditions: 10 µM; pre-incubation: 30-90 min
row,Structure (SMILES),Prob-Train
1,O=c1ncccn1[C@@H]1O[C@H](CO)[C@H](O)[C@@H]1O [Zebularine],0.22
2,CN[C@@H]1[C@H](O[C@H]2[C@H](O[C@H]3[C@H](O)[C@@H](O)[C@@H](NC(=N)N)[C@@H](O)[C@@H]3NC(=N)N)O[C@@H](C)[C@@]2(O)C=O)O[C@H](CO)[C@H](O)[C@H]1O.CN[C@@H]1[C@H](O[C@H]2[C@H](O[C@H]3[C@H](O)[C@@H](O)[C@@H](NC(=N)N)[C@@H](O)[C@@H]3NC(=N)N)O[C@@H](C)[C@@]2(O)C=O)O[C@H](CO)[C@H](O)[C@H]1O.O=S(=O)(O)O.O=S(=O)(O)O.O=S(=O)(O)O [Streptomycin sulfate],-0.242
3,C=Cc1c(C)c2cc3nc(cc4[nH]c(cc5nc(cc1[nH]2)C(C)=C5CCC(=O)O)c(CCC(=O)OC)c4C)[C@@]1(C)C3=CC=C(C(=O)OC)[C@H]1C(=O)OC [Verteporfin (Visudyne)],-0.373
4,COC(=O)N[C@H](C(=O)N[C@@H](Cc1ccccc1)[C@@H](O)CN(Cc1ccc(-c2ccccn2)cc1)NC(=O)[C@@H](NC(=O)OC)C(C)(C)C)C(C)(C)C.O=S(=O)(O)O [Atazanavir Sulfate],0.077
5,CCC(CC)[C@H](NC(C)=O)[C@@H]1[C@H](O)[C@@H](C(=O)O)C[C@H]1NC(=N)N.O.O.O [Peramivir Trihydrate],0.509
6,C=CC(=O)Nc1cccc(Oc2nc(Nc3ccc(N4CCN(C)CC4)cc3)ncc2Cl)c1,-0.33
7,CC(NC(=O)c1ccccc1/N=C/c1c(O)ccc2ccccc12)c1ccccc1 (centres undefined) [Sirtinol],-0.537
8,"CN1CCN(c2ccc3nc(-c4c(N)c5c(F)cccc5[nH]c4=O)[nH]c3c2)CC1 [Dovitinib (TKI-258, CHIR-258)]",0.231
9,CCCCC(=O)N(Cc1ccc(-c2ccccc2-c2nn[nH]n2)cc1)[C@H](C(=O)O)C(C)C [Valsartan],-0.316
10,CN(C)CCN1C(=O)c2cccc3cc(N)cc(c23)C1=O [Amonafide],-0.517
11,Nc1nc(=O)c2ncn(CCC(CO)CO)c2[nH]1 [Penciclovir],0.23
12,Cl.c1ccc(C2CN3CCSC3=N2)cc1 (centres undefined) [Tetramisole HCl],0.205
13,COc1ccc([C@H]2CNC(=O)C2)cc1OC1CCCC1 [S- (+)-Rolipram],-0.637
14,N[C@@H]1CN(c2c(F)cc3c(=O)c(C(=O)O)cn([C@@H]4C[C@@H]4F)c3c2Cl)CC12CC2 [Sitafloxacin Hydrate],0.0672
15,Nc1nc(N)c2nc(-c3cccc(O)c3)c(-c3cccc(O)c3)nc2n1,0.459
16,"Cn1c(=O)n(-c2ccc(C(C)(C)C#N)cc2)c2c3cc(-c4cnc5ccccc5c4)ccc3ncc21 [BEZ235 (NVP-BEZ235, Dactolisib)]",-1.29
17,CC(C)(C)NC[C@H](O)COc1nsnc1N1CCOCC1.O=C(O)/C=C/C(=O)O [Timolol Maleate],-0.338
18,CC(C(=O)O)c1ccc2c(c1)[nH]c1ccc(Cl)cc12 (centres undefined) [Carprofen],-0.36
19,CNC(=O)c1cccc(-c2ccc3c(N4CCOC[C@@H]4C)nc(N4CCOC[C@@H]4C)nc3n2)c1,0.101
20,COC(=O)Nc1nc2ccc(C(=O)c3ccc(F)cc3)cc2[nH]1 [Flubendazole],-0.086

row,Structure (SMILES),Prob-Train
1,CCc1ccc(CCOc2ccc(CC3SC(=O)NC3=O)cc2)nc1.Cl (centres undefined) [Pioglitazone HCl],-1.26
2,CN/C(=N\C#N)NCCSCc1nc[nH]c1C [Cimetidine],0.57
3,CC(C)NCC(O)c1ccc(O)c(O)c1.Cl (centres undefined) [Isoprenaline HCl],-0.0883
4,Cl.Nc1c2c(nc3ccccc13)CCCC2 [Tacrine HCl],0.437
5,C[C@H]1C[C@H]2[C@@H]3CCC4=CC(=O)C=C[C@]4(C)[C@@H]3C(=O)C[C@]2(C)[C@]1(O)C(=O)CO [Meprednisone],0.279
6,CN(C)CCCN1c2ccccc2CCc2ccc(Cl)cc21.Cl [Clomipramine HCl],-1.56
7,COc1ccc(-c2cc3c(C)nc(N)nc3n([C@H]3CC[C@H](OCCO)CC3)c2=O)cn1,-1.78
8,O=C(NNc1ccccc1)c1ccncc1,0.639
9,CC(C)/N=c1/cc2n(-c3ccc(Cl)cc3)c3ccccc3nc-2cc1Nc1ccc(Cl)cc1 [Clofazimine],-0.211
10,CCCc1nc(C(C)(C)O)c(C(=O)OCc2oc(=O)oc2C)n1Cc1ccc(-c2ccccc2-c2nn[nH]n2)cc1 [Olmesartan Medoxomil],-0.616
11,Cc1ccc(C(=O)C(C)CN2CCCCC2)cc1.Cl (centres undefined) [Tolperisone HCl],0.987
12,O=c1cc(N2CCOCC2)oc2c(-c3ccccc3)cccc12,-0.574
13,CC[C@@H](C)[C@@H]1NC(=O)[C@@H](CCCN)NC(=O)[C@@H](NC(=O)[C@@H](NC(=O)[C@@H](CCC(=O)[O-])NC(=O)[C@H](CC(C)C)NC(=O)C2CN=C([C@@H](N)[C@@H](C)CC)S2)[C@H](C)CC)CCCCNC(=O)[C@H](CC(N)=O)NC(=O)[C@@H](CC(=O)[O-])NC(=O)[C@H](Cc2c[nH]cn2)NC(=O)[C@H](Cc2ccccc2)NC1=O.[Zn+2] (some centres undefined) [Bacitracin zinc],-0.529
14,COc1ccc2[nH]c(S(=O)Cc3ncc(C)c(OC)c3C)nc2c1 (centres undefined) [Omeprazole],0.0475
15,COC(c1ccccc1)(c1ccccc1)[C@H](Oc1nc(C)cc(C)n1)C(=O)O [Ambrisentan],0.0748
16,O=S(=O)([O-])CCS.[Na+] [Mesna],-0.256
17,C[C@H]1NC(=O)NC1=O [Methylhydantoin-5-(D)],0.384
18,CCN(CC)C(=O)[C@]1(c2ccccc2)C[C@@H]1CN.Cl [Milnacipran HCl],-0.352
19,CCn1cc(C(=O)O)c(=O)c2cc(F)c(N3CCNCC3)cc21 [Norfloxacin (Norxacin)],0.172
20,CC(C)OC(=O)OCOP(=O)(CO[C@H](C)Cn1cnc2c(N)ncnc21)OCOC(=O)OC(C)C.O=C(O)/C=C\C(=O)O [Tenofovir Disoproxil Fumarate],-0.186
